Laboratory results published in PMC10897327.

Molecular target: C-terminally FLAG-tagged WT 52K (adenovirus L1-52/55 kilodalton protein) (human adenovirus type C5 (Ad5))
Test: co-IP; anti-FLAG (mouse M2) IP of C-terminally FLAG-tagged 52K from lysates of Δ52K Ad5-infected HEK-293 cells at 24 hpi, Protein G Dynabeads, IgG control; immunoblot of eluates (10%) against input (1%)

B1: packaging protein IVa2 (protein, UniProt P03271 1-449)
chain: METRGRRPAALQHQQDQPQAHPGQRAARSAPLHRDPDYADEDPAPVERHDPGPSGRAPTTAVQRKPPQPAKRGDMLDRDAVEQVTELWDRLELLGQTLKSMPTADGLKPLKNFASLQELLSLGGERLLADLVRENMRVRDMLNEVAPLLRDDGSCSSLNYQLHPVIGVIYGPTGCGKSQLLRNLLSSQLISPTPETVFFIAPQVDMIPPSELKAWEMQICEGNYAPGPDGTIIPQSGTLRPRFVKMAYDDLILEHNYDVSDPRNIFAQAAARGPIAIIMDECMENLGGHKGVSKFFHAFPSKLHDKFPKCTGYTVLVVLHNMNPRRDMAGNIANLKIQSKMHLISPRMHPSQLNRFVNTYTKGLPLAISLLLKDIFRHHAQRSCYDWIIYNTTPQHEALQWCYLHPRDGLMPMYLNIQSHLYHVLEKIHRTLNDRDRWSRAYRARKTPK
Question: Which binding does the source give for B1 here?
Answer: binds

These are yes or no findings as the source states them, for the method shown. Binding seen in cells or lysates may run through a third protein. Binding calls can cover weak binding; strength is not graded here.
